Measured values as given in paper PMC8774046.
Results are given in words; binding and its absence hold for the method and conditions named. Binding seen in cells or lysates may run through a third protein. These calls come from enrichment with a bait or labelling near it, and not all partners need be listed.

Amino acid sequences for entries named in this document (tags omitted). A change or cut given only in a name is not applied to a line headed by its entry.
UniProt Q9SXA1: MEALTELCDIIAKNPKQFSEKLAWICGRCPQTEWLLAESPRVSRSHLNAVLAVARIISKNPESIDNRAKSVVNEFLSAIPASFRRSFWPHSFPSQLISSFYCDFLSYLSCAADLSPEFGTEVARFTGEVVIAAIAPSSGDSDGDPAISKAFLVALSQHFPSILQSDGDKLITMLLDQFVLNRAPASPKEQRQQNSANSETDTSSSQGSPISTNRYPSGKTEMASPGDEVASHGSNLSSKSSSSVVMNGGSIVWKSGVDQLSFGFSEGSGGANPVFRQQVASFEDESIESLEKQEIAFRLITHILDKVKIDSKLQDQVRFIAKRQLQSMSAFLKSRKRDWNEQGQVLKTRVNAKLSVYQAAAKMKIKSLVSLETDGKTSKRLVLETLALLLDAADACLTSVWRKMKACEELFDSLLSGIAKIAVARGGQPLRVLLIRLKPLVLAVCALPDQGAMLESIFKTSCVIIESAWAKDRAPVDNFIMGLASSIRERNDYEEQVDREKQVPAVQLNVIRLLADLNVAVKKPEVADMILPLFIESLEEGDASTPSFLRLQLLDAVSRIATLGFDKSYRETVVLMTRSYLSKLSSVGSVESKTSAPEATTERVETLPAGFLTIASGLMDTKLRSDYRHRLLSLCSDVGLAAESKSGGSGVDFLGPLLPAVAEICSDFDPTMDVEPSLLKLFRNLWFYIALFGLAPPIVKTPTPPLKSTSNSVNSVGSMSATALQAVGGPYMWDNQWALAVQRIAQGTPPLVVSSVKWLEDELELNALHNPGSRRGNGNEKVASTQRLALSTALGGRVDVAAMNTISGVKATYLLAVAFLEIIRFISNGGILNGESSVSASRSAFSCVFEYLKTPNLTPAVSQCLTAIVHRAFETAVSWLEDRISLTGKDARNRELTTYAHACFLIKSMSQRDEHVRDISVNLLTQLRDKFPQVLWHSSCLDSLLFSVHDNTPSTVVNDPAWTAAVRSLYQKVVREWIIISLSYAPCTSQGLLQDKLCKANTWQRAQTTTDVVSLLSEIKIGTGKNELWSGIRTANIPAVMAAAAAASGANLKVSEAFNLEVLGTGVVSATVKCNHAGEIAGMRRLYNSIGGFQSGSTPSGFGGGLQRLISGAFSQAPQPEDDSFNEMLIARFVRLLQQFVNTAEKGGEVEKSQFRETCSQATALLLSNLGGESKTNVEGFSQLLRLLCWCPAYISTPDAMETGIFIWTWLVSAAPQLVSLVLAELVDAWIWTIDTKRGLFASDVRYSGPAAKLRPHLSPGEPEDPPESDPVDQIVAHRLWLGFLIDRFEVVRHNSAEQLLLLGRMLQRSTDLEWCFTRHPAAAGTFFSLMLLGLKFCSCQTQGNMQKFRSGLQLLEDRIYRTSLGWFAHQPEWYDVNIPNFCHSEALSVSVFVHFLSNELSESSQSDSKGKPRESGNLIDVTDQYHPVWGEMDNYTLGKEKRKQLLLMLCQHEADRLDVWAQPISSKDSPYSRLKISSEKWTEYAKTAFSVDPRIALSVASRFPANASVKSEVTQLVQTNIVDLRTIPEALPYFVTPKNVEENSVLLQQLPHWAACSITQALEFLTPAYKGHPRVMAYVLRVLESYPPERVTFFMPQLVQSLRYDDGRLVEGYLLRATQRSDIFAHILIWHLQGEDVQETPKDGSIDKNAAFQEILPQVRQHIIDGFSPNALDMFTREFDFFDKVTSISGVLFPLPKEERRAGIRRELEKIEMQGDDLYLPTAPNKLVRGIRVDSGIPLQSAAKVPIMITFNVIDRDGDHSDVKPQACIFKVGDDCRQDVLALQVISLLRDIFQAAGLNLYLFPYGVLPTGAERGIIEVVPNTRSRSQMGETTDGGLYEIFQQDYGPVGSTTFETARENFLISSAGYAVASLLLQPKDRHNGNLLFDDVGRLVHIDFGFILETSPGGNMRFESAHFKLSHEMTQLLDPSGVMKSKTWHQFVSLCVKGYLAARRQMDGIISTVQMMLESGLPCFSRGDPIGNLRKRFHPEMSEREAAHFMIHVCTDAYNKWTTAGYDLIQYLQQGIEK
UniProt Q9FMI8: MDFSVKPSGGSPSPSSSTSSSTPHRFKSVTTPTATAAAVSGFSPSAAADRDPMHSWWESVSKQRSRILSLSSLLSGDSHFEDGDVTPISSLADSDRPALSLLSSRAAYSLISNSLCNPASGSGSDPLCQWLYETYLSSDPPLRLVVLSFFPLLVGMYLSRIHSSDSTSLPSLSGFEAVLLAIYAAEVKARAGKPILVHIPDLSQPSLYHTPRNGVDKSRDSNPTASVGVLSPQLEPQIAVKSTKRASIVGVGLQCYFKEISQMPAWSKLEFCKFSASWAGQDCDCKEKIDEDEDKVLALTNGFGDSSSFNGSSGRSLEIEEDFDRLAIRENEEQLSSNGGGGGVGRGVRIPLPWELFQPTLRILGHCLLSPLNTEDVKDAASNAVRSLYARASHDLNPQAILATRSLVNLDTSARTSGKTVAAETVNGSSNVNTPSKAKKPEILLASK

Experiments:
[1] = target: T1, NPGR2–mCITRINE (Arabidopsis thaliana) (UniProt Q66GN3); assay: affinity purification with mass spectrometry; IP of mCITRINE fusions from transgenic Arabidopsis lines; trypsin digest, LC-MS/MS (Orbitrap); controls myristoylation–2xmCITRINE and mCITRINE–NES–mCITRINE
T1 sequence: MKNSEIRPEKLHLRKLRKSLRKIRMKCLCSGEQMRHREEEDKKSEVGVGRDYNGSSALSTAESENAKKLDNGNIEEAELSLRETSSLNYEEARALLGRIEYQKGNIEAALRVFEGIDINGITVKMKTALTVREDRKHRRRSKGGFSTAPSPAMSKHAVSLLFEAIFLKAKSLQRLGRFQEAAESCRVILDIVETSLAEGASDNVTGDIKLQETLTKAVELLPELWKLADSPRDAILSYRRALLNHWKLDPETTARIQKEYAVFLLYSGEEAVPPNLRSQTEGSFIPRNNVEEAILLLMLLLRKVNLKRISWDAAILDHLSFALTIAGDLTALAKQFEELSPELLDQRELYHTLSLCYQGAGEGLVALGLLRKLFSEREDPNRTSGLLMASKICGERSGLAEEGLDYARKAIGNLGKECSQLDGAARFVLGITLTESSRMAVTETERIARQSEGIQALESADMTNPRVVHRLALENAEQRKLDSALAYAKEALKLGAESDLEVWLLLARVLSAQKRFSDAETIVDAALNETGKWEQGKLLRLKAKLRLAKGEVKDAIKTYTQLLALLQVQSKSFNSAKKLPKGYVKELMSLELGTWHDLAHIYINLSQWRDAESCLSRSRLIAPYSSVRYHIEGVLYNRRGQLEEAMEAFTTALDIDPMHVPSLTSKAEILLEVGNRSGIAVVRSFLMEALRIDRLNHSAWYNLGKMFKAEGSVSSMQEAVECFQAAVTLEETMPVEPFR

[2] = target: mCITRINE–PI4Kα1 (Arabidopsis thaliana) (UniProt Q9SXA1); assay: as above

## PI4Kα1 (endogenous, native) (from UniProt Q9SXA1 1-2028) (enzyme)
[1]
  binding: binds

## HYCCIN-CONTAINING2 (endogenous) (from UniProt Q9FMI8)
[1]
  binding: binds
[2]
  binding: binds
